Experimental data: PubChem BioAssay AID1508597 (Cure First, 2020)
Aim: 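Knock-downs altering ovarian cancer cell survival with or without PARP inhibitor rucaparib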 (primary screen). Cells: human ovarian carcinoma lines grown from tumours: OCI-P5x (papillary serous) and OCI-C5x (clear cell). Reagents: siRNA pool against human genes, 1.25 pmol siRNA per well. Time to read-out: 72 h or 96 h, depending on the cell culture. Challenge: rucaparib 20 µM (about IC30) or vehicle, present until read-out. Measured: 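Luminescent ATP-based viability assay read 72 or 96 h after transfection, depending on culture, given as normalised percent viability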. Scale: viability, normalised: higher = more viable cells remaining. Call rule: 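Active when normalised viability falls below 80 percent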. Meaning of the calls: active = viability under 80%; inactive = viability 80% or more.
This is one part, drawn at random, of about 2,100 reagents tested. 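Calls flag viability under 80% in either arm, not effects specific to rucaparib; the reference for percent is not stated.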 A number with no mark means an inactive call. Reagent sequences are not shown. The record does not give: the 100% reference.

{"gene symbol":"ELOA3P","rucaparib or vehicle":"Rucaparib","cell line":"OCI-C5x (clear cell)","technical replicate":"1","viability, normalised (%)":"55 (active)"}
{"gene symbol":"ELOA3P","rucaparib or vehicle":"Rucaparib","cell line":"OCI-C5x (clear cell)","technical replicate":"2","viability, normalised (%)":"53.4 (active)"}
{"gene symbol":"ELOA3P","rucaparib or vehicle":"Rucaparib","cell line":"OCI-C5x (clear cell)","technical replicate":"3","viability, normalised (%)":"59.6 (active)"}
{"gene symbol":"ELOA3P","rucaparib or vehicle":"Rucaparib","cell line":"OCI-P5x (serous)","technical replicate":"1","viability, normalised (%)":102}
{"gene symbol":"ELOA3P","rucaparib or vehicle":"Rucaparib","cell line":"OCI-P5x (serous)","technical replicate":"2","viability, normalised (%)":"76.4 (active)"}
{"gene symbol":"ELOA3P","rucaparib or vehicle":"Rucaparib","cell line":"OCI-P5x (serous)","technical replicate":"3","viability, normalised (%)":"78.8 (active)"}
{"gene symbol":"ELOA3P","rucaparib or vehicle":"Vehicle","cell line":"OCI-C5x (clear cell)","technical replicate":"1","viability, normalised (%)":"58.7 (active)"}
{"gene symbol":"ELOA3P","rucaparib or vehicle":"Vehicle","cell line":"OCI-C5x (clear cell)","technical replicate":"2","viability, normalised (%)":"45.8 (active)"}
{"gene symbol":"ELOA3P","rucaparib or vehicle":"Vehicle","cell line":"OCI-C5x (clear cell)","technical replicate":"3","viability, normalised (%)":"42.2 (active)"}
{"gene symbol":"ELOA3P","rucaparib or vehicle":"Vehicle","cell line":"OCI-P5x (serous)","technical replicate":"1","viability, normalised (%)":"70.6 (active)"}
{"gene symbol":"ELOA3P","rucaparib or vehicle":"Vehicle","cell line":"OCI-P5x (serous)","technical replicate":"2","viability, normalised (%)":"71.6 (active)"}
{"gene symbol":"ELOA3P","rucaparib or vehicle":"Vehicle","cell line":"OCI-P5x (serous)","technical replicate":"3","viability, normalised (%)":"76 (active)"}
{"gene symbol":"CDK4","rucaparib or vehicle":"Rucaparib","cell line":"OCI-C5x (clear cell)","technical replicate":"1","viability, normalised (%)":"48.3 (active)"}
{"gene symbol":"CDK4","rucaparib or vehicle":"Rucaparib","cell line":"OCI-C5x (clear cell)","technical replicate":"2","viability, normalised (%)":"42.1 (active)"}
{"gene symbol":"CDK4","rucaparib or vehicle":"Rucaparib","cell line":"OCI-C5x (clear cell)","technical replicate":"3","viability, normalised (%)":"50.1 (active)"}
{"gene symbol":"CDK4","rucaparib or vehicle":"Rucaparib","cell line":"OCI-P5x (serous)","technical replicate":"1","viability, normalised (%)":"77.4 (active)"}
{"gene symbol":"CDK4","rucaparib or vehicle":"Rucaparib","cell line":"OCI-P5x (serous)","technical replicate":"2","viability, normalised (%)":93.6}
{"gene symbol":"CDK4","rucaparib or vehicle":"Rucaparib","cell line":"OCI-P5x (serous)","technical replicate":"3","viability, normalised (%)":"76.2 (active)"}
{"gene symbol":"CDK4","rucaparib or vehicle":"Vehicle","cell line":"OCI-C5x (clear cell)","technical replicate":"1","viability, normalised (%)":"50.7 (active)"}
{"gene symbol":"CDK4","rucaparib or vehicle":"Vehicle","cell line":"OCI-C5x (clear cell)","technical replicate":"2","viability, normalised (%)":"50.8 (active)"}
{"gene symbol":"CDK4","rucaparib or vehicle":"Vehicle","cell line":"OCI-C5x (clear cell)","technical replicate":"3","viability, normalised (%)":"59.1 (active)"}
{"gene symbol":"CDK4","rucaparib or vehicle":"Vehicle","cell line":"OCI-P5x (serous)","technical replicate":"1","viability, normalised (%)":94.2}
{"gene symbol":"CDK4","rucaparib or vehicle":"Vehicle","cell line":"OCI-P5x (serous)","technical replicate":"2","viability, normalised (%)":83.4}
{"gene symbol":"CDK4","rucaparib or vehicle":"Vehicle","cell line":"OCI-P5x (serous)","technical replicate":"3","viability, normalised (%)":85.3}

A few values from above.
Value of ELOA3P, rucaparib or vehicle Rucaparib, cell line OCI-C5x (clear cell), technical replicate 3 in “viability, normalised (%)”: 59.6 (active)
Value for CDK4, rucaparib or vehicle Rucaparib, cell line OCI-P5x (serous), technical replicate 1 under “viability, normalised (%)”: 77.4 (active)
Entry of ELOA3P, rucaparib or vehicle Rucaparib, cell line OCI-C5x (clear cell), technical replicate 2 in “viability, normalised (%)”: 53.4 (active)
